For this assay, the target named is γTuRC subunit GCP3 (mouse (endogenous in hippocampal cultures)) (UniProt P58854). In words: co-IP; 3 DIV or 10 DIV hippocampal cultures lysed (50 mM Tris pH 7.4, 150 mM NaCl, 1 mM MgCl2, 1 mM EGTA, 10% glycerol, 1% Triton X-100); immunoprecipitation with anti-GCP3 antibody overnight or control IgG, Protein G-Sepharose; immunoblot.

The chains behind the UniProt entries cited, without tags or fusion partners. Where a name states a change or a piece, a line headed by the entry shows the natural chain unless it says otherwise.
UniProt P58854: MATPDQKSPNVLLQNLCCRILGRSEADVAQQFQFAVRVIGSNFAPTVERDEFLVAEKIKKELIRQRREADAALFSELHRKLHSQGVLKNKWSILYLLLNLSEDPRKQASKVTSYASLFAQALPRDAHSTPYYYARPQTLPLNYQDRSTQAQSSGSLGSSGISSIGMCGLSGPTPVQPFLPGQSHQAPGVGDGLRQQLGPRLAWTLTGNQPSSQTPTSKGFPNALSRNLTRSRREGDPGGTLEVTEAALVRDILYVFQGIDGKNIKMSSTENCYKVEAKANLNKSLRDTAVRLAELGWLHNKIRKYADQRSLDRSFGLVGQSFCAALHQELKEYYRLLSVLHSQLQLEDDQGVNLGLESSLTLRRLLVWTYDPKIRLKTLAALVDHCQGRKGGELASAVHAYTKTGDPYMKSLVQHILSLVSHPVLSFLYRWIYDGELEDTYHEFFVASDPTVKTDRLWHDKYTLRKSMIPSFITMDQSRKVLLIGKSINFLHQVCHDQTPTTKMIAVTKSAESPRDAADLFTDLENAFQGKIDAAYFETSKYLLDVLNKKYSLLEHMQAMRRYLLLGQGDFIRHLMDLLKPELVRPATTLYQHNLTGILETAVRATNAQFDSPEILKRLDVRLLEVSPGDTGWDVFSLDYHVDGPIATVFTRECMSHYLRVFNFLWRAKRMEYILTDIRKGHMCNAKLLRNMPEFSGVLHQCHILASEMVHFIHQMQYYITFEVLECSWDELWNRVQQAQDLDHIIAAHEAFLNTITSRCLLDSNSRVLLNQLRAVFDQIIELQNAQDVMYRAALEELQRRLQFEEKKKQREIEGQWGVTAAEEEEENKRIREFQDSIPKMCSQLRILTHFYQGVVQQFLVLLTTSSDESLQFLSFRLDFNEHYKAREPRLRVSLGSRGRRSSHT
UniProt Q6NV99: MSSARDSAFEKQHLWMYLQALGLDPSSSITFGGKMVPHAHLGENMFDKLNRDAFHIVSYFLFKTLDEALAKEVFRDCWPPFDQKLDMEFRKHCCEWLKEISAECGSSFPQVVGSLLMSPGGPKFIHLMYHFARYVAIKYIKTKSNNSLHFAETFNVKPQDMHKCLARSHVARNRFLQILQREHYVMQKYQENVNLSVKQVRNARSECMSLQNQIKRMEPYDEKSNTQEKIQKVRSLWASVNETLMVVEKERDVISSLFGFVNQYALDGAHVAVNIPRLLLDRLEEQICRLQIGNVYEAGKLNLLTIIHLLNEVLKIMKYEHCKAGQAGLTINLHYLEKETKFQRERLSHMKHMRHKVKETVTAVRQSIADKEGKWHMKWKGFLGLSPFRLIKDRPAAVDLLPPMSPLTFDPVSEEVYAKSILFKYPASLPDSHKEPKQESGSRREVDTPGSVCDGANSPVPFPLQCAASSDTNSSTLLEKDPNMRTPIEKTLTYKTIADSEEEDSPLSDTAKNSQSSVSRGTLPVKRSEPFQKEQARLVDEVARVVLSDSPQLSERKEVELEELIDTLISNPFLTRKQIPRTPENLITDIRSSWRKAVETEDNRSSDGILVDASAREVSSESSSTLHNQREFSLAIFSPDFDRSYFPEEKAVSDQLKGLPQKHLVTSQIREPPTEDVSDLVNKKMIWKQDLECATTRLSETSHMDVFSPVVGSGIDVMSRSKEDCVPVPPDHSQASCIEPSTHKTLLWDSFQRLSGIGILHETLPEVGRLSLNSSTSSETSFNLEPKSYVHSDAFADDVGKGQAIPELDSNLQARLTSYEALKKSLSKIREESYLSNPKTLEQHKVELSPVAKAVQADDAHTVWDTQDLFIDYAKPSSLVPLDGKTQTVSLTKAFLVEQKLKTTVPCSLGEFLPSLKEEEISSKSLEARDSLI

These are yes or no findings as the source states them, for the method shown. In cells and extracts the contact can be indirect. Binding calls can cover weak binding; strength is not graded here.

As for “augmin subunit HAUS6 (from UniProt Q6NV99)”, the binding entry is on record as “binds”.

These data come from article PMC4947180.
